Results from paper PMC6362814.
These are yes or no findings as the source states them, for the method shown. In cells and extracts the contact can be indirect. Here binding means that the protein was enriched with, or labelled near, the bait; the list need not be complete. For part of these data: A no says only that the protein was not detected with the bait. Tags and fused reporters may be left off the sequences shown. Blank lines part the entries; values can stand above or below the molecule they belong to.

Protein sequences, listed by entry. Tags and fused reporters are not part of them.
UniProt Q80U72: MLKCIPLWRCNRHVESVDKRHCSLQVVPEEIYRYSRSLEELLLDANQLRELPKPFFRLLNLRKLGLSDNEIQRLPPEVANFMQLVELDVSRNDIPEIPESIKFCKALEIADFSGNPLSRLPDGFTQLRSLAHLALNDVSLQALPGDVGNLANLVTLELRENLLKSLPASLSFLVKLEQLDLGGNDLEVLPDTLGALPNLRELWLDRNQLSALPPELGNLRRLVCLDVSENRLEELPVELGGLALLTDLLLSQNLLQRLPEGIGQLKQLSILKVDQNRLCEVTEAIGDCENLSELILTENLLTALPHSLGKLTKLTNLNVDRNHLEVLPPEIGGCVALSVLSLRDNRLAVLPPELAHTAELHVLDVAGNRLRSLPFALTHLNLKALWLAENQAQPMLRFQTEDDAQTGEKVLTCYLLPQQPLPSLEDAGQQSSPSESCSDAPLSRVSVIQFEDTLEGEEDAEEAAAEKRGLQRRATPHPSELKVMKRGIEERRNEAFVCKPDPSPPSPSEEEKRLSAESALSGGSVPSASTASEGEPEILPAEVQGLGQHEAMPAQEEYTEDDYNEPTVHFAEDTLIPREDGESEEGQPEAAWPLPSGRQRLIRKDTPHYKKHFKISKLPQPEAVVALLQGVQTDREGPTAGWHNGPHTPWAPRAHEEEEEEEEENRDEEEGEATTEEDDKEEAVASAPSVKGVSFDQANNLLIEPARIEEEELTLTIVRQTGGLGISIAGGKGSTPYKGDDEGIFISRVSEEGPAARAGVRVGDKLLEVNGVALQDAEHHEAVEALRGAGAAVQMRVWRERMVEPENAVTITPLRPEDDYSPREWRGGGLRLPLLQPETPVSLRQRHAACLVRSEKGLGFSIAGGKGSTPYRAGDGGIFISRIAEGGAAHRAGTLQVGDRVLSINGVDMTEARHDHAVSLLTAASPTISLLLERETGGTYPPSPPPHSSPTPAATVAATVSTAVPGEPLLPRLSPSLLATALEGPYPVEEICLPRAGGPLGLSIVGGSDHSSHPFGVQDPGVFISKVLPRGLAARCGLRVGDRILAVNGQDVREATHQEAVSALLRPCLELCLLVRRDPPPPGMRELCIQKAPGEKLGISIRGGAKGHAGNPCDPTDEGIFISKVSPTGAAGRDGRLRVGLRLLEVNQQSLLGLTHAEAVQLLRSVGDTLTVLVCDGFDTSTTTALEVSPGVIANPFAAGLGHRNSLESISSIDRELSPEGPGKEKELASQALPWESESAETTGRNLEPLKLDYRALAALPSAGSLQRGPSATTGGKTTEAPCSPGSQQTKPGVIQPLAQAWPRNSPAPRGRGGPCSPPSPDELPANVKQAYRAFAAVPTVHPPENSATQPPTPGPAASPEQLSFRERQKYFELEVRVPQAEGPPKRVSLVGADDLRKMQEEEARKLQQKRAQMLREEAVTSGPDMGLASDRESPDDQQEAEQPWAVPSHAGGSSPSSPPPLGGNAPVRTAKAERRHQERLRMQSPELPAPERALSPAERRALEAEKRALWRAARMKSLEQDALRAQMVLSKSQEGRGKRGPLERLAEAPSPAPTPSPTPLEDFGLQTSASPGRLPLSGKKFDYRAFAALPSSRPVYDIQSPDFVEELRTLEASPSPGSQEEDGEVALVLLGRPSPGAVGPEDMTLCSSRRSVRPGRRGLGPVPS
UniProt Q3TJD7: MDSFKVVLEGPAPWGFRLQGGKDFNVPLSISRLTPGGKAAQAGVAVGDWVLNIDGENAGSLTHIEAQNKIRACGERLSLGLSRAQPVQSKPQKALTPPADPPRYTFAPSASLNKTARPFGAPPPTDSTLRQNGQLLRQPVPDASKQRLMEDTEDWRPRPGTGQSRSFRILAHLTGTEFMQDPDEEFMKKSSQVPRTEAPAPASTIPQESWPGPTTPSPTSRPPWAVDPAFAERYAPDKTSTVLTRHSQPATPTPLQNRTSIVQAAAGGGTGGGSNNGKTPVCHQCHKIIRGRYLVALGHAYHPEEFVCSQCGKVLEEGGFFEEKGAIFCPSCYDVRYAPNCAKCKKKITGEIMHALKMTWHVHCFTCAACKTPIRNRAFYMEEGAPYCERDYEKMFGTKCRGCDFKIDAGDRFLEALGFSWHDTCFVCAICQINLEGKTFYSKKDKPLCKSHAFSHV
UniProt Q9EQZ7: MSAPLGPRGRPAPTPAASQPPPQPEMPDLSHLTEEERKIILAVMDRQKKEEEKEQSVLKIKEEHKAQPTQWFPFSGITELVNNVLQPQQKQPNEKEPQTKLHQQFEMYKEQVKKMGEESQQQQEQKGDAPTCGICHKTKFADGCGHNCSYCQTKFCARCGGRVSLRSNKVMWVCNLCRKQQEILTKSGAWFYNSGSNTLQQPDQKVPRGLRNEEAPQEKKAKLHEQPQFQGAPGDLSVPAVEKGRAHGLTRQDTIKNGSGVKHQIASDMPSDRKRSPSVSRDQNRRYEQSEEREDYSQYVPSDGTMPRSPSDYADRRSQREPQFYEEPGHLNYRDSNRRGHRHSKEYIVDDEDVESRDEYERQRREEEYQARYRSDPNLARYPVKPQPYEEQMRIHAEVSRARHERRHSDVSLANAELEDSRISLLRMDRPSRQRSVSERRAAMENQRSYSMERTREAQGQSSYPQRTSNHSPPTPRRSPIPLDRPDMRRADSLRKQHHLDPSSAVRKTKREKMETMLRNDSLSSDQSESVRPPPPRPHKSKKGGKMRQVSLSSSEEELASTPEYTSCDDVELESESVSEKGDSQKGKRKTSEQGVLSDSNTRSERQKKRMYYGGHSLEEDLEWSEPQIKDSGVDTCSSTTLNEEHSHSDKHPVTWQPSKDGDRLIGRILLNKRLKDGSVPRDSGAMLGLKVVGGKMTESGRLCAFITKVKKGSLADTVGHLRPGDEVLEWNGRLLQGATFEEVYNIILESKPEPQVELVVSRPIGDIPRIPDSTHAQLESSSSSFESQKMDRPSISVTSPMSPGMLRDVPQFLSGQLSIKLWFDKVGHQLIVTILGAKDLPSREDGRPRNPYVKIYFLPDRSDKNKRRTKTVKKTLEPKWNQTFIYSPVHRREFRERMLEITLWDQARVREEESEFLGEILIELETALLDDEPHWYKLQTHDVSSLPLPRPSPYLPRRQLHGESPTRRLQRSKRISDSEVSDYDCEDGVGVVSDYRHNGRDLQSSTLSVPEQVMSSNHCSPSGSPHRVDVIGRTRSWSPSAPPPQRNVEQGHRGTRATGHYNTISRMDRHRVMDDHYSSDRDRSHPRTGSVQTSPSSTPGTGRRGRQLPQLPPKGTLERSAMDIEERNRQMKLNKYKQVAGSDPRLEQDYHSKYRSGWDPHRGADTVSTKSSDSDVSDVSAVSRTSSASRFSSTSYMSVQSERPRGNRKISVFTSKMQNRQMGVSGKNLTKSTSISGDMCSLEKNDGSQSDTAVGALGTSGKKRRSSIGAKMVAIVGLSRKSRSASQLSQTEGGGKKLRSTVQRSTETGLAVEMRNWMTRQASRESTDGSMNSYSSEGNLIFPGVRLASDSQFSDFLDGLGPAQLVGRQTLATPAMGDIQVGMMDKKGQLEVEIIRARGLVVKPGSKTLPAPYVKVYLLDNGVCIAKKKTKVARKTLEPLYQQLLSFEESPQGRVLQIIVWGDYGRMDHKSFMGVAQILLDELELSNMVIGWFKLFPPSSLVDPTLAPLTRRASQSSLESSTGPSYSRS
UniProt Q9QZQ1: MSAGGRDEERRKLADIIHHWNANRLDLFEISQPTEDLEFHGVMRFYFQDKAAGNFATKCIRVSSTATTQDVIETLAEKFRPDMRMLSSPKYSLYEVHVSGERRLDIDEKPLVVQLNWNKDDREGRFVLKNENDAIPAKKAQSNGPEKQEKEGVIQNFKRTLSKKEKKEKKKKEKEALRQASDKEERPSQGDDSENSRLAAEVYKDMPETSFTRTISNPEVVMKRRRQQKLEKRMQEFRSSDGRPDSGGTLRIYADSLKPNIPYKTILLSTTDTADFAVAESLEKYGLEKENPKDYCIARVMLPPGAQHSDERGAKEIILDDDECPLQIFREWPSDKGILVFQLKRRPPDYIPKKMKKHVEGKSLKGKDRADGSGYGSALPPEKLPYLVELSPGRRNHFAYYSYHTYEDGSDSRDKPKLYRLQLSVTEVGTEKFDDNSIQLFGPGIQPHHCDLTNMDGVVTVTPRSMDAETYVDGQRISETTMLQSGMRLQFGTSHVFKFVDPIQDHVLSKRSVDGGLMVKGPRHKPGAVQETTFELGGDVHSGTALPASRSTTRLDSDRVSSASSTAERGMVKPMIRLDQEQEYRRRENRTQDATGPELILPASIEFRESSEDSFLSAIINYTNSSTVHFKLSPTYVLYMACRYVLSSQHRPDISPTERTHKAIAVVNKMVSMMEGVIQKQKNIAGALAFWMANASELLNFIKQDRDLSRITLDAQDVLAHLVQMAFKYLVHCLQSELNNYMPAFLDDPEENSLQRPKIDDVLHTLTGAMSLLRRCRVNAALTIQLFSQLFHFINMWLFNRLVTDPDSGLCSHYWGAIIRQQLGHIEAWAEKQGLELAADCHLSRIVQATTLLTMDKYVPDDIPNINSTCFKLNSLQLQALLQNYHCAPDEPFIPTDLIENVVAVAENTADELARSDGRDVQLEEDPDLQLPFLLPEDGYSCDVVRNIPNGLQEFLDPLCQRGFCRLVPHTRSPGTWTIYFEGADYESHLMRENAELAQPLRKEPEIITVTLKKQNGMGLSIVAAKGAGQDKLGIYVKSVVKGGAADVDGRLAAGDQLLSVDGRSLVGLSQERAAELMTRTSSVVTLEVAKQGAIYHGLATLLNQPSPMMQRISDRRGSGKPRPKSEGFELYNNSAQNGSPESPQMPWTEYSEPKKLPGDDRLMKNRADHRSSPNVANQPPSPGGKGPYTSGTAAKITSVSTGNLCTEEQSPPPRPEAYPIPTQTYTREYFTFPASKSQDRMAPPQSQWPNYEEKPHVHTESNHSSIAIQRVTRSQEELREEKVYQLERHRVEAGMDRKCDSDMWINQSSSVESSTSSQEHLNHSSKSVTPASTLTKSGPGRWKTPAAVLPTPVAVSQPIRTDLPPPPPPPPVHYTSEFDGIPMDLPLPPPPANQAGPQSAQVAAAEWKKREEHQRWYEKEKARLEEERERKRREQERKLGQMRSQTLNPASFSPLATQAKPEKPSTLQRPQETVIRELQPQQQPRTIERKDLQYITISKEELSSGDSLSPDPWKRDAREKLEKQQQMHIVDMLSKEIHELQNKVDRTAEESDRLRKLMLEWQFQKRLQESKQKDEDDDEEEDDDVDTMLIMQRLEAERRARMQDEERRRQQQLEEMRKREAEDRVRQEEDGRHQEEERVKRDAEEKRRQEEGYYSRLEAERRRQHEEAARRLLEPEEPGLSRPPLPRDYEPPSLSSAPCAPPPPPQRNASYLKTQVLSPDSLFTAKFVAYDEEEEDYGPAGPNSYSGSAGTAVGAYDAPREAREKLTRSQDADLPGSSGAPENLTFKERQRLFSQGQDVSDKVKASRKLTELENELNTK

Experiments:
[1] = target: T1, HA-tagged wild-type Claudin-2 (mouse) (mouse) (UniProt O88552); assay: affinity purification with mass spectrometry; anti-HA immunoprecipitation from 2776 cells expressing HA-tagged wild-type Claudin-2 or the ΔPDZ BD mutant; silver staining; mass spectrometry of excised gel pieces
T1 sequence: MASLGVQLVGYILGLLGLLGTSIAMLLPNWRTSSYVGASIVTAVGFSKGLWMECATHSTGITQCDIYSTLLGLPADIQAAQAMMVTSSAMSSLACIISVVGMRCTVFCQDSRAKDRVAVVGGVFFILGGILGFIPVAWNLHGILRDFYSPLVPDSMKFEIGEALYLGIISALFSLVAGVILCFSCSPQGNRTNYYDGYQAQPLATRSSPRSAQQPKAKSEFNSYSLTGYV

[2] = target: T2, HA-tagged Claudin-2 mutant lacking the PDZ-binding motif (mouse) (mouse) (UniProt O88552); assay: as above
T2 sequence: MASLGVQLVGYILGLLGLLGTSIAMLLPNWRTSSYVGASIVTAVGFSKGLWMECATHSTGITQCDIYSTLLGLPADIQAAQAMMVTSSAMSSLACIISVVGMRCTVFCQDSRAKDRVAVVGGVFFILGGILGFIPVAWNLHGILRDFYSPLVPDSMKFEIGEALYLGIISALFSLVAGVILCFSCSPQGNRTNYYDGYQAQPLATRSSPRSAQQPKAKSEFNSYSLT

- binding [1]: binds
- binding [2]: no binding
Molecule: Scrib (from UniProt Q80U72 1-1665)

- binding [1]: binds
- binding [2]: no binding
Molecule: Pdlim7 (from UniProt Q3TJD7 1-457)

- binding [1]: binds
- binding [2]: no binding
Molecule: Rims2 (from UniProt Q9EQZ7 1-1530)

- binding [1]: binds
- binding [2]: no binding
Molecule: Arhgap21 (from UniProt Q6DFV3 1-1945)

- binding [1]: binds
- binding [2]: no binding
Molecule: Afadin (mouse, endogenous in 2776 cells) (from UniProt Q9QZQ1 1-1820)

- binding [1]: binds
- binding [2]: no binding
B1: Pdlim2 (protein, UniProt Q8R1G6 1-349)
chain: MALTVDVAGPAPWGFRISGGRDFHTPIIVTKVTERGKAEAADLRPGDIIVAINGQSAENMLHAEAQSKIRQSASPLRLQLDRSQTASPGQTNGEGSLEVLATRFQGSLRTHRDSQSSQRSACFSPVSLSPRPCSPFSTPPPTSPVALSKEDMIGCSFQSLTHSPGLAAAHHLTYPGHPTSQQAGHSSPSDSAVRVLLHSPGRPSSPRFSSLDLEEDSEVFKMLQENRQGRAAPRQSSSFRLLQEALEAEERGGTPAFVPSSLSSQASLPTSRALATPPKLHTCEKCSVNISNQAVRIQEGRYRHPGCYTCADCGLNLKMRGHFWVGNELYCEKHARQRYSMPGTLNSRA
